# Test results: PMC11391049 (Life Science Alliance, 2024)
# Sequences of proteins named here, by UniProt entry; tags and fusion partners are left off.
# UniProt P36040: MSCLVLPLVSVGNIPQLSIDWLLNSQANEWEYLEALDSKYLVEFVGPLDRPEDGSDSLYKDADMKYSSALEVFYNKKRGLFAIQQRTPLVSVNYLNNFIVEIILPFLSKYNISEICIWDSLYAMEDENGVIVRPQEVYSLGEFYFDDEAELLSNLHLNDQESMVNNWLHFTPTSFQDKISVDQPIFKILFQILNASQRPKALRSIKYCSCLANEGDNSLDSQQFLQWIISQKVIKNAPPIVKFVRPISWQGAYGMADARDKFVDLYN
# No constants are given. Whether binding was seen depends on the method and setting. In cells and extracts the contact can be indirect. Here binding means that the protein was enriched with, or labelled near, the bait; the list need not be complete. Sequences can lack the tags named with a protein.
# T1: β4-S142F (pre1-1) with FLAG-6xHis-tag (S. cerevisiae, UniProt P22141 1-198, S142F)
# T1 construct: Pre1/β4, S. cerevisiae, mutant version of the pre1-1 strain; also called pre1-1-FH; Pre1/β4 (β4-S142F)
# T1 sequence: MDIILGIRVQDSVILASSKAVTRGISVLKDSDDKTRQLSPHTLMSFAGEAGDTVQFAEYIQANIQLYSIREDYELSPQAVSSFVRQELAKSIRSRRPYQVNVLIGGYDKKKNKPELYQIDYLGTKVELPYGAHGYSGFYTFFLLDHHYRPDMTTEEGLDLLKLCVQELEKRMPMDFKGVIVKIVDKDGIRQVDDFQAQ
# Molecular target: T1, β4-S142F (pre1-1) with FLAG-6xHis-tag
# Assay: affinity purification with mass spectrometry; tandem affinity purification (FLAG, 6xHis on β4) from pre1-1 cells overexpressing Pba1-Pba2, separation by native PAGE, bands evaluated by MS
row,binding,Molecule
1,binds,Pba2 (from UniProt P36040 1-267)
2,binds,"Pba1 (protein, UniProt Q05778 1-276) MLFKQWNDLPEPKHLLDLPEISKNLQSLEVCPVPKVEFPQDLDVPQYSTAVITTKIMNPLFPKNLLQLTSIGEIKTTLTVKSPSLPQSSGKHSWNYDENFPNEVDPDQKNDTADETVYGFSFPIYSFGKTLLFSMEENFISISPIFGNMISRSIISQLAQFSPDIIVIGTSDKIASMKVMTENECTLQPPEFITGFIGSVLTQLIVGPSKGLKFKCLVAPSEGPNGFEKLSLSDMGSLVDLCGQWLGFEPSRYSEECYRLWRCDSAAIGAQSGLYI"
